For at least one compound, name, drawing or mass did not settle the structure.
Legend:
human CD34+ cells [1] = test: FACS analysis of erythroid markers CD71 and CD235a on differentiating CD34+ cells; assay type: cell-based; details: 20 μM dorsomorphin, treated for two days starting from D3 of differentiation
Protocol: To establish the role of BMP signaling in erythroid differentiation, differentiating CD34^+ cells were treated with human recombinant BMP4 (hrBMP4) to activate the pathway, or with dorsomorphin, a known inhibitor of BMP signaling. Knowing that erythroid lineage commitment occurs around D3, differentiating cells were treated for two days starting from D3, to test the effects of these signals on erythrocyte commitment. […] Human CD34+ cells, isolated from peripheral blood of granulocyte colony-stimulating factor-mobilized healthy volunteers, were obtained from the Fred Hutchinson Cancer Research Center. The cells were maintained and differentiated as previously described (Sankaran et al., 2008b; Trompouki et al.,2011). Control and treated stage-matched CD34 cells were washed in PBS and stained with propidium iodide (PI), 1:60 APC-conjugated CD235a (eBioscience, clone HIR2, 17-9987-42), 1:60 FITC-conjugated CD71 (eBioscience, OKT9, 11-0719-42), 1:60 PE-conjugated CD41a (eBioscience, HIP8, 12-0419-42) and 1:60 PE-conjugated CD11b (eBioscience, ICRF44, 12-0118-42). BD Bioscience LSR II flow cytometer was used to record raw FACS data, which were analyzed subsequently using FlowJo 8.6.9 10.0.7 (TreeStar). Human CD34^+ cells, isolated from peripheral blood of granulocyte colony-stimulating factor mobilized healthy volunteers, were purchased from the Fred Hutchinson Cancer Research Center. […]

human CD34+ cells [2] = test: qPCR analysis of GATA1/SMAD1 co-bound and GATA1-only genes after dorsomorphin treatment; assay type: cell-based; details: dorsomorphin from D3, RNA isolated at beginning of D5

c1cc(-c2cnn3cc(-c4ccc(OCCN5CCCCC5)cc4)cnc23)ccn1 [dorsomorphin]
erythroid differentiation potential (CD71 and CD235a FACS) (human CD34+ cells [1]): significantly reduces the erythroid differentiation potential | expression of GATA1/SMAD1 co-bound genes (HBB, ALAS2, SLC4A1, DYRK3, UROS) (human CD34+ cells [2]): selectively decreases expression of GATA1/SMAD1 co-bound genes | expression of genes occupied by GATA1 alone (NFATC3, SH2D6, ZFP36L1, KCNK5, LMNA) (human CD34+ cells [2]): not of those occupied by GATA1 alone

Reference: patent publication US20190002886A1, “SIGNALING CENTERS OF ERYTHROID DIFFERENTIATION” (THE CHILDREN'S MEDICAL CENTER CORPORATION, priority 2017, published 2019)
